The data set in a line: general procedure: solution-phase peptide synthesis; EDC.HCl / HOBt.H2O with TEA in DMF; DPPA for cyclisation. To be noted: TFA salt.

With Orn(Z)-Cyc(Ts)-Gly-Gly-OEt TFA salt, the step yield (late stage modification step) is listed as more than 100%.
Regarding cyclo-(Gly-Orn(Z)-Cyc(Ts)-Gly-Gly-), the cyclisation yield (cyclisation step) was 78%.
As for Gly-Orn(Z)-Cyc(Ts)-Gly-Gly-OH TFA salt, the step yield (late stage modification step) is on record as 99%.
For the substance Boc-Gly-Orn(Z)-Cyc(Ts)-Gly-Gly-OH, the step yield (late stage modification step) came to 91%.
With Boc-Orn(Z)-Cyc(Ts)-Gly-Gly-OEt, the step yield (coupling step) is 87%.
Consider cyclo-(Gly-Orn-Cyc(Ts)-Gly-Gly-), for which the step yield (late stage modification step) turned out to be 89%.
In the case of Boc-Gly-Orn(Z)-Cyc(Ts)-Gly-Gly-OEt, under “coupling step”, the step yield was 87%.
Take “cyclo-(Gly-Orn(Lithocholyl)-Cyc(Ts)-Gly-Gly-)”: under “lipidation step”, the step yield is 56%.

Source of the values: US7407645B2 (Metaphore Pharmaceuticals, Inc., priority 1995, dated 2008).
